Reference: publication PMC4671958
The exact form of at least one protein or probe is not confirmed. At least one verdict rests on a figure or table, not on a statement of the authors.

Protein sequences, listed by entry. Tags and fused reporters are not part of them. Residues count along the entry.
UniProt O75417, 67-894: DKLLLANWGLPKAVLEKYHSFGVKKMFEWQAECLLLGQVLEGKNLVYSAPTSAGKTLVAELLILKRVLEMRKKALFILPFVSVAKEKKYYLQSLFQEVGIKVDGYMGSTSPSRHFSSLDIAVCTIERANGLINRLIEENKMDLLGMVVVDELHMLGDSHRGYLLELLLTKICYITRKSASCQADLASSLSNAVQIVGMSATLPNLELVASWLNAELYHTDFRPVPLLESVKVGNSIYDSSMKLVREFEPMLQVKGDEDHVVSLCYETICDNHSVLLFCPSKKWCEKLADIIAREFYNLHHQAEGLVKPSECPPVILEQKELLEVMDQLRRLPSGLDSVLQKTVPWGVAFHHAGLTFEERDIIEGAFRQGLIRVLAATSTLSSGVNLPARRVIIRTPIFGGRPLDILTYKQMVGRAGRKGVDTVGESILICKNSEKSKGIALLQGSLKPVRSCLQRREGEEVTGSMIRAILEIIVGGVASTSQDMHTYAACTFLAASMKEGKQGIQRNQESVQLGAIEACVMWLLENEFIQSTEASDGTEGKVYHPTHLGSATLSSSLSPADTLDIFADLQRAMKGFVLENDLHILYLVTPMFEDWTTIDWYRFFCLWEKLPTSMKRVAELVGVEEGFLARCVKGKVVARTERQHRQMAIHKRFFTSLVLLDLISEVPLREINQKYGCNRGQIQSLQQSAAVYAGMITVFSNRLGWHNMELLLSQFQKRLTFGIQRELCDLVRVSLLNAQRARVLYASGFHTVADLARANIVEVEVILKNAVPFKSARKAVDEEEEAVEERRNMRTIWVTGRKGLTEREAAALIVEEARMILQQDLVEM

Molecular target: Polθ-HLD (DNA polymerase theta helicase domain) (Homo sapiens) (UniProt O75417)
Experiment: fluorescence polarization
Settings: 150 mM NaCl, 10 mM HEPES pH 7.5, 150 mM NaCl (low salt: 50 mM NaCl), 10 nM probe, recombinant protein, residues 67-894, protein details: His6 tag cleaved with TEV
[1] = range for three- and four-way junctions, label: 5' fluorescein (FITC) on POLQ-1, folded or branched DNA

ATCGATAGTCGGATCCTCTAGACAGCTCCATGTAGCAAGGCACTGGTAGAATTCGGCAGCGTC (double strand) [Double stranded (POLQ-1 + POLQ-2)]
Kd (label: 5' fluorescein (FITC) on POLQ-1): 190 nM

ATCGATAGTCGGATCCTCTAGACAGCTCCATGTAGCAAGGCACTGGTAGAATTCGGCAGCGTC / GACGCTGCCGAATTCTACCAGTGCCTTG [5' overhang (POLQ-1 + POLQ-9)]
binding result (range for substrates with significant ssDNA regions, label: 5' fluorescein (FITC) on POLQ-1): binds

ATCGATAGTCGGATCCTCTAGACAGCTCCATGTAGCAAGGCACTGGTAGAATTCGGCAGCGTC / GACGCTGCCGAATTCTACCAGTGCCTTGCTAGGACATCTTTGCCCACCTGCAGGTTCACCC / GGAGCTGTCTAGAGGATCCGACTATCGA / TGGGTGAACCTGCAGGTGGGCAAAGATG [Three-way junction]
binding result [1]: binds

ATCGATAGTCGGATCCTCTAGACAGCTCCATGTAGCAAGGCACTGGTAGAATTCGGCAGCGTC / GACGCTGCCGAATTCTACCAGTGCCTTGCTAGGACATCTTTGCCCACCTGCAGGTTCACCC / GGGTGAACCTGCAGGTGGGCAAAGATGTCCATTAGTGGATCCTTAGCACCGTTGTAAGACG / CGTCTTACAACGGTGCTAAGGATCCACTAATCATGGAGCTGTCTAGAGGATCCGACTATCGAT [Four-way junction]
binding result [1]: binds

ATCGATAGTCGGATCCTCTAGACAGCTCCATGTAGCAAGGCACTGGTAGAATTCGGCAGCGTC [Single stranded (POLQ-1)]
binding result (range for substrates with significant ssDNA regions, label: 5' fluorescein (FITC), single-stranded DNA): binds
